Results taken from the supplement of paper PMC10849652.
This is one part of the list.

Amino acid sequences for entries named in this document (tags omitted). A change or cut given only in a name is not applied to a line headed by its entry.
UniProt Q7Z388: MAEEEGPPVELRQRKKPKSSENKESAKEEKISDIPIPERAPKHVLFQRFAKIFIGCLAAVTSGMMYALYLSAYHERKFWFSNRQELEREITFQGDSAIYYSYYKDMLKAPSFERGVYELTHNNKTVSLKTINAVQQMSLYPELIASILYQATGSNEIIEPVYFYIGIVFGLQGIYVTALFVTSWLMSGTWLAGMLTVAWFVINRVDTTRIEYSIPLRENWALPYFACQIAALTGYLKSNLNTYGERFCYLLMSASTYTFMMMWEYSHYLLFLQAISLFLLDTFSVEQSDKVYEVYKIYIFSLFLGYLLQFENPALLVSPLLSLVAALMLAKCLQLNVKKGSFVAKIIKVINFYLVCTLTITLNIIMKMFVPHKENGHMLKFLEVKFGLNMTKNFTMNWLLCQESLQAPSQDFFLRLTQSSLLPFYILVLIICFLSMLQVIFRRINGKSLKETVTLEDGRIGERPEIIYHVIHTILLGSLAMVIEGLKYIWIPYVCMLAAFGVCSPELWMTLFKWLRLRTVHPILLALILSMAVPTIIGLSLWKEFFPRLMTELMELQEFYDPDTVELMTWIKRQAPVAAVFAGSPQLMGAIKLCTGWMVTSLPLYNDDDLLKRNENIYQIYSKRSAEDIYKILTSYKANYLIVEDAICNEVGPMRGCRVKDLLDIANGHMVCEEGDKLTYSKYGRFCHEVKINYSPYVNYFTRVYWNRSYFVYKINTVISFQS
UniProt O75071: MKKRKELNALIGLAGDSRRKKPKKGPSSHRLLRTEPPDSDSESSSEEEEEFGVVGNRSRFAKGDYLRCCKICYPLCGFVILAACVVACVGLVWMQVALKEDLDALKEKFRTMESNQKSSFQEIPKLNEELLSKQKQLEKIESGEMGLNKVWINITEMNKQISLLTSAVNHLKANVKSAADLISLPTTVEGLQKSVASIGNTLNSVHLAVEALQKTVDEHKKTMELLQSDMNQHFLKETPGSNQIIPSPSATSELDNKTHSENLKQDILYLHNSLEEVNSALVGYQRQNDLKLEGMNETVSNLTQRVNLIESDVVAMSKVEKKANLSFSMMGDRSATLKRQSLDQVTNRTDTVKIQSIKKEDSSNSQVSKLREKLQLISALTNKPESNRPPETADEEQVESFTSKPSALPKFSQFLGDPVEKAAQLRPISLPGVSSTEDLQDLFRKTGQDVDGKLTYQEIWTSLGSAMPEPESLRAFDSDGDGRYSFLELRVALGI
UniProt Q92785, whole entry, looked up: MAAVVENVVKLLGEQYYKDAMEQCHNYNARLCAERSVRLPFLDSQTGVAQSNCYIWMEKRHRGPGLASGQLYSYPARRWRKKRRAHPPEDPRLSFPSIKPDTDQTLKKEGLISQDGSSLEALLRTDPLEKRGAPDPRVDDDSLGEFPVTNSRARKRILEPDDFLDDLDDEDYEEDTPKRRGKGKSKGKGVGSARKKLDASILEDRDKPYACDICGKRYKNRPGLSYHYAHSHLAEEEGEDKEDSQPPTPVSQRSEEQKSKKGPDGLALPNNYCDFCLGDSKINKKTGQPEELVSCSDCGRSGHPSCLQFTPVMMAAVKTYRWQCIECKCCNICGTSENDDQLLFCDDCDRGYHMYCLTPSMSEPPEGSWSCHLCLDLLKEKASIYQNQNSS
UniProt P60981: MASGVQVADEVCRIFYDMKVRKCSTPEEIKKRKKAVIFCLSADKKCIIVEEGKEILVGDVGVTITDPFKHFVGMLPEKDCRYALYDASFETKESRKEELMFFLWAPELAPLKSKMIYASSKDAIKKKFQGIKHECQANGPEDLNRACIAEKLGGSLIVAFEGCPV
UniProt P30084: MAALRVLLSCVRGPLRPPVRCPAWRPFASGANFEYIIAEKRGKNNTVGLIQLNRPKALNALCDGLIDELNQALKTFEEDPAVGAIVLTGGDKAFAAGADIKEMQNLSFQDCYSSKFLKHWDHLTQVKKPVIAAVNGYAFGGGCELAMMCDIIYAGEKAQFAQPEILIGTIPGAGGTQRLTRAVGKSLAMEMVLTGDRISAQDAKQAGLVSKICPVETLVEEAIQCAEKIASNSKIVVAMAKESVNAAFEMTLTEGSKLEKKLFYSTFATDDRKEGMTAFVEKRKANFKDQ
UniProt Q15029: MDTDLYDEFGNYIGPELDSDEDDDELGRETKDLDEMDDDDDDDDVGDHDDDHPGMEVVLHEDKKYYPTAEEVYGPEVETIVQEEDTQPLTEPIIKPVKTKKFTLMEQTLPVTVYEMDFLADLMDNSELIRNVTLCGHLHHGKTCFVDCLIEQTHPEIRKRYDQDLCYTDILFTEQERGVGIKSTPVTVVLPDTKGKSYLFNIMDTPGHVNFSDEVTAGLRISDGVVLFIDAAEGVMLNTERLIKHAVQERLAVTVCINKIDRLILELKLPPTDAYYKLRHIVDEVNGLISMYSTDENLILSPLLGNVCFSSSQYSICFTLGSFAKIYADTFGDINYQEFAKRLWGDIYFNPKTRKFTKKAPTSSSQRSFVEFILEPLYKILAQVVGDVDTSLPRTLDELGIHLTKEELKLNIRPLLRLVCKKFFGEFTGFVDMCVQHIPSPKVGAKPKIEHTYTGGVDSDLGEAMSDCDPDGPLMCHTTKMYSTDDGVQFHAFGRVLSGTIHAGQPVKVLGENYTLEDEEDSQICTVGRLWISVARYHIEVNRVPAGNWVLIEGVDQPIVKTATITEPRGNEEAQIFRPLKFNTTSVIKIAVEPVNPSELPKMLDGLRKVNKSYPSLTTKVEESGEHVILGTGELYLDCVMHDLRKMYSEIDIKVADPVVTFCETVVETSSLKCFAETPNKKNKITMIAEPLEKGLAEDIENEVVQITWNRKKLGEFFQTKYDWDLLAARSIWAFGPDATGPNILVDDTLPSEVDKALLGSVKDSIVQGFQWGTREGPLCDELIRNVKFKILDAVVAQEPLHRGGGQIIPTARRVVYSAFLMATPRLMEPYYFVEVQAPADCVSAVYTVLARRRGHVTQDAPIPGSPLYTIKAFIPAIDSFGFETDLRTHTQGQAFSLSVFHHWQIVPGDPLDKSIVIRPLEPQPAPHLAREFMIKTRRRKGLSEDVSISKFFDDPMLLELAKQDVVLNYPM
UniProt P23919: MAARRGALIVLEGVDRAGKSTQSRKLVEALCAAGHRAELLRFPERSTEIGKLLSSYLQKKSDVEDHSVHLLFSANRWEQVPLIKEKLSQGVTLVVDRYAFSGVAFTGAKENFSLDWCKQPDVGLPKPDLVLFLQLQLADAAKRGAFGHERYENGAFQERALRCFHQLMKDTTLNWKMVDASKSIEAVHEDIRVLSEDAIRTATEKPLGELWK
UniProt Q02487, whole entry, looked up: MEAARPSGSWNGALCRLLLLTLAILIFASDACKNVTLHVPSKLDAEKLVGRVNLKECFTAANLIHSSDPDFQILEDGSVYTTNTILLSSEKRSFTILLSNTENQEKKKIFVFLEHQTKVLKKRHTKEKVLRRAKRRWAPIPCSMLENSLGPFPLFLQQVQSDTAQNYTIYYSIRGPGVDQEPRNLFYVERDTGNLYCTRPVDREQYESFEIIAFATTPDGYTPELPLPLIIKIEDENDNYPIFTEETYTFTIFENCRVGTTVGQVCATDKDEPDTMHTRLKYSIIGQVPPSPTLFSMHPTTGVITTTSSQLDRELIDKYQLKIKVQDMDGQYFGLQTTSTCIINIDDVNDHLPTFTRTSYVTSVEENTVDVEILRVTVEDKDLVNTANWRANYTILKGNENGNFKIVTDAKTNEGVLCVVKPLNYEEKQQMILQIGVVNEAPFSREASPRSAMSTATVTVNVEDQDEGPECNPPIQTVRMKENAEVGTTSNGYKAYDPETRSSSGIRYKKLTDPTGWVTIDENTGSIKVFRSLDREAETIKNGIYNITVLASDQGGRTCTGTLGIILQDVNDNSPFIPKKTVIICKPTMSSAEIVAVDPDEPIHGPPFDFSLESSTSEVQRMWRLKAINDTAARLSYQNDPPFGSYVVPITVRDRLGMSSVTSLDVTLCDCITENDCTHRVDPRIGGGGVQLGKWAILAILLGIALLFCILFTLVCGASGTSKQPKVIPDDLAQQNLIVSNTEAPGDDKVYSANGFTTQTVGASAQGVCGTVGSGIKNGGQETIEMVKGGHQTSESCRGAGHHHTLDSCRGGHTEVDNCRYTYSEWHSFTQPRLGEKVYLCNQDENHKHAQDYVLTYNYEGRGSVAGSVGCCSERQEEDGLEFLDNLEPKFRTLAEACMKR
UniProt O77932: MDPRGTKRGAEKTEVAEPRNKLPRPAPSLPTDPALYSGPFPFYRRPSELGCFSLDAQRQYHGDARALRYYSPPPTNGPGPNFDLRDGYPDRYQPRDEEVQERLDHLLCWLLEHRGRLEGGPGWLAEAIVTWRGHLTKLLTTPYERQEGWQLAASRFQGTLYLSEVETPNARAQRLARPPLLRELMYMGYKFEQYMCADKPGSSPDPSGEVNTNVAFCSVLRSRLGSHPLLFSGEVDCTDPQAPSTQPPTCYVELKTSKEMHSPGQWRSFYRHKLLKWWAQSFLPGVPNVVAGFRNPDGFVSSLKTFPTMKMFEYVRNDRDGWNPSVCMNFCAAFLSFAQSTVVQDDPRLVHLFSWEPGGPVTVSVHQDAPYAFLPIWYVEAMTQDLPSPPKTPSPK
UniProt Q9BVJ7: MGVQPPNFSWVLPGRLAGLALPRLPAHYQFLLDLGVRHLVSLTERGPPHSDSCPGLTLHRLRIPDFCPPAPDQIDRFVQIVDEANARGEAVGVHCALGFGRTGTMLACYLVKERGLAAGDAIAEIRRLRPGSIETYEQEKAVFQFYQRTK
UniProt Q9GZT9: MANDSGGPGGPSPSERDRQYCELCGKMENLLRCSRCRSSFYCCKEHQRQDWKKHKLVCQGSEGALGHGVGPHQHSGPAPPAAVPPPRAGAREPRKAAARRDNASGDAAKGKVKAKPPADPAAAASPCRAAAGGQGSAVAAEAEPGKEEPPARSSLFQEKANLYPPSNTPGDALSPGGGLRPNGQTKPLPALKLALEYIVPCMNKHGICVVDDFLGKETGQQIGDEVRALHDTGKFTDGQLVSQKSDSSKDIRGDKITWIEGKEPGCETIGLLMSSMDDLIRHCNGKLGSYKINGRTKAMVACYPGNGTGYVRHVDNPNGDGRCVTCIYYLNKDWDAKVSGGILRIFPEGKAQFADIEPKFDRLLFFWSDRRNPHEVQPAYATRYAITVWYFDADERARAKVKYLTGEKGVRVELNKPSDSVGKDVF
UniProt P24534: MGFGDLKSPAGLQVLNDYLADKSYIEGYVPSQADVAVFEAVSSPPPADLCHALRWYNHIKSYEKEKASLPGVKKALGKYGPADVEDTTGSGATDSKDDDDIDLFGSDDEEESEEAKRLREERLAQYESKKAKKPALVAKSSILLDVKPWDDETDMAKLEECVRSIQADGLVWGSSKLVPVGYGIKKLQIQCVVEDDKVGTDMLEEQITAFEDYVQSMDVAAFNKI
UniProt Q56P03: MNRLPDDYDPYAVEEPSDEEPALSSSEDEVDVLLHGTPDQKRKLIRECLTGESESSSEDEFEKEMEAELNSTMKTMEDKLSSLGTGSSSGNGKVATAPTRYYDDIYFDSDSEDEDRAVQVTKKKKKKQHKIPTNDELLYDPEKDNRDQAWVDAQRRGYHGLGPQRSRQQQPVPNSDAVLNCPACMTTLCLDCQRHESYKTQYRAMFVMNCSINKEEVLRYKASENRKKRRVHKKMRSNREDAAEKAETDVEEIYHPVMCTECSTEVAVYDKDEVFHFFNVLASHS
UniProt Q9BZQ6: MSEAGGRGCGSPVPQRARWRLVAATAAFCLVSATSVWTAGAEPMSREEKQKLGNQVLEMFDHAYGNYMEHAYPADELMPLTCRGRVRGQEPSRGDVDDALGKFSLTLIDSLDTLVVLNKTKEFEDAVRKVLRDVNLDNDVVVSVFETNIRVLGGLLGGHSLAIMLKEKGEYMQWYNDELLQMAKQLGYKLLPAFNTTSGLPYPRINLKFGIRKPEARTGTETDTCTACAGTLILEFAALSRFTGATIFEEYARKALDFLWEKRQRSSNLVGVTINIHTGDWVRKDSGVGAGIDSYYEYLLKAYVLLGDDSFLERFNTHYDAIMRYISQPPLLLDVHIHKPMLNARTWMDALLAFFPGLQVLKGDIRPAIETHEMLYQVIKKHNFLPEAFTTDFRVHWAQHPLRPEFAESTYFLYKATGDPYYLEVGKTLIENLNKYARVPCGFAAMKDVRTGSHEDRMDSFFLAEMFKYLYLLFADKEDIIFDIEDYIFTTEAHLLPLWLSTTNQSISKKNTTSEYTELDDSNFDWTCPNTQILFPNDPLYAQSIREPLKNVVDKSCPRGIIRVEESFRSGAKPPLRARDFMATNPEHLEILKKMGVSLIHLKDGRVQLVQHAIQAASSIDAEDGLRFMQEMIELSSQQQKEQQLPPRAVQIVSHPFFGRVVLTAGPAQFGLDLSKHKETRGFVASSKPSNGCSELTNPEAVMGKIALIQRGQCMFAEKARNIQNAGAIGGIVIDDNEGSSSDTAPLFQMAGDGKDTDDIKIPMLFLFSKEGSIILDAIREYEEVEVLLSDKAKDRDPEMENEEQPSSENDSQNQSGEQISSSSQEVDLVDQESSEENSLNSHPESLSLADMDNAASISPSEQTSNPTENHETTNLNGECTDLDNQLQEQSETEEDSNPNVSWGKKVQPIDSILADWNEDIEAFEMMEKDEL

Compound: C1COCCN1CCN2C3=CC=CC=C3N=C2NC(=O)C4=CC(=CC=C4)[N+](=O)[O-] [IRAK-1-4 Inhibitor I]
Assay: log2 fold change, soluble protein after heating vs DMSO (PISA); higher = thermal stabilisation; K562 lysate, 10 uM; active = over 0.2 and 3.5 SD of the protein, either way, in both replicates (recomputed)
How it was run: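 Log-two fold change in thermal stability relative to solvent controls is reported from duplicates. For each sample, crude K562 extract from dounce-homogenised pellets in PBS pH 7.4 with 1 mM MgCl2, at 1 mg/mL protein, was treated with 10 μM compound for 30 min. Aliquots heated for 3 min across 48°C-58°C were pooled, brought to 0.5% NP-40 at 4°C and cleared at 21,000xg for 90 min. The supernatant was quantified by TMTpro 16plex LC-MS/MS with channel sums equalised.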

log2 fold change, inactive:
DPY19L4 (UniProt Q7Z388) 0.024
EFCAB14 (UniProt O75071) 0.011
DYRK1A (UniProt Q13627) -0.046
DPF2 (UniProt Q92785) 0.025
DSTN (UniProt P60981) -0.007
ECHS1 (UniProt P30084) -0.02
EFTUD2 (UniProt Q15029) -0.011
EDF1 (UniProt O60869) 0.031
DTYMK (UniProt P23919) -0.028
EEFSEC (UniProt P57772) -0.024
DSC2 (UniProt Q02487) 0.01
DXO (UniProt O77932) -0.242
DUSP23 (UniProt Q9BVJ7) 0.066
EGLN1 (UniProt Q9GZT9) -0.021
EEF1B2 (UniProt P24534) 0.014
EAPP (UniProt Q56P03) -0.014
EDEM3 (UniProt Q9BZQ6) -0.005

Random excerpt: 2 records from the list, in no set order.
log2 fold change, inactive:
DPF2 (UniProt Q92785) 0.025
DUSP23 (UniProt Q9BVJ7) 0.066
